These are yes or no findings as the source states them, for the method shown. In cells and extracts the contact can be indirect. These calls come from enrichment with a bait or labelling near it, and not all partners need be listed. Where a sequence is shown, tags or fusion partners need not be part of it.
T1: 6HIS-HA-JHD2 (S. cerevisiae) (UniProt P47156)
T1 sequence: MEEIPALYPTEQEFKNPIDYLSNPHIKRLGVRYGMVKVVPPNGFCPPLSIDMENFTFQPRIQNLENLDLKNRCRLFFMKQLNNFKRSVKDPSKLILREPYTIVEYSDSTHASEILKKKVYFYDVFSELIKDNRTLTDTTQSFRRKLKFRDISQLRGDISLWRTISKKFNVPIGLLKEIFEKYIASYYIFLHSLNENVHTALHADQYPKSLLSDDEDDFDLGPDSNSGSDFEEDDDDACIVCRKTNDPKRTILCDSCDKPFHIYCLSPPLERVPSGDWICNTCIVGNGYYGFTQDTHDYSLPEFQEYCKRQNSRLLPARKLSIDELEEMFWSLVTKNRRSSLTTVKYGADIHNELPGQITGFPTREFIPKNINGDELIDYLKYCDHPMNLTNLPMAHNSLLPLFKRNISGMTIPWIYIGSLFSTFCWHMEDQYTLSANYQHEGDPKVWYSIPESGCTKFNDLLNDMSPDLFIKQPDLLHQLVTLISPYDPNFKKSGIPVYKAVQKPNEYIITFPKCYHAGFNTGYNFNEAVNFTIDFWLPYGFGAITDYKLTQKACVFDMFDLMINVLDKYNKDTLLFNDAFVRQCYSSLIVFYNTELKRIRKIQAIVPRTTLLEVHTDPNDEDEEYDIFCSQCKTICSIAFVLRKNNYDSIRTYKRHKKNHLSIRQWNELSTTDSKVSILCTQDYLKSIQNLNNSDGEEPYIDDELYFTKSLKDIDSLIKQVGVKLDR


Molecular target: T1, 6HIS-HA-JHD2 (S. cerevisiae)
Test: affinity purification with mass spectrometry; whole cell extracts of a wild-type strain with 6HIS-HA-JHD2 induced from the GAL1 promoter for 6 hours; Ni-NTA agarose and anti-HA agarose beads at 4°C for 24 hours; proteins found with the empty vector strain excluded

| Binder | binding |
| --- | --- |
| SET2 (protein, UniProt P46995 1-733) MSKNQSVSASEDEKEILNNNAEGHKPQRLFDQEPDLTEEALTKFENLDDCIYANKRIGTFKNNDFMECDCYEEFSDGVNHACDEDSDCINRLTLIECVNDLCSSCGNDCQNQRFQKKQYAPIAIFKTKHKGYGVRAEQDIEANQFIYEYKGEVIEEMEFRDRLIDYDQRHFKHFYFMMLQNGEFIDATIKGSLARFCNHSCSPNAYVNKWVVKDKLRMGIFAQRKILKGEEITFDYNVDRYGAQAQKCYCEEPNCIGFLGGKTQTDAASLLPQNIADALGVTVSMEKKWLKLKKLSGEPIIKNENENINIEFLQSLEVQPIDSPVDVTKIMSVLLQQDNKIIASKLLKRLFTIDDDSLRHQAIKLHGYTCFSKMLKLFITEQPQVDGKGNETEEDDIKFIKGILDFLLELPKTTRNGIESSQIDNVVKTLPAKFPFLKPNCDELLEKWSKFETYKRITKKDINVAASKMIDLRRVRLPPGWEIIHENGRPLYYNAEQKTKLHYPPSGSSKVFSSRSNTQVNSPSSSGIPKTPGALDSKKHKLSDEEYERKKQKRLEYERIALERAKQEELESLKQKLKLENERKSVLEDIIAEANKQKELQKEEAKKLVEAKEAKRLKRKTVSQSQRLEHNWNKFFASFVPNLIKKNPQSKQFDHENIKQCAKDIVKILTTKELKKDSSRAPPDDLTKGKRHKVKEFINSYMDKIILKKKQKKALALSSASTRMSSPPPSTSS | binds |
| SET5 (protein, UniProt P38890 1-526) MTLTIKIGTLNDSDQSAVHNGTENGSDFRKITPTEEEICDDVVLLWKEEPGTEDATIQHLYDRITERNQSWKLSASRFRKILNEHHLYDTDLETVSLYKDKIHFPKALDSDAKVEVKFIDDEHGRGLFAKRDFSKGQIILKENKPIVYIPPLDKLFLISNGKACARCGKALYDLTQHKIMVHYLDCEVCKAIWCSEKCKKAHASLHELLYHSWRSNRIDILHAGNWKRFVNYCEKYCFTAAFSVGLIYGSMLLDTTGEVKEQWQKLASISQRERIKLRDASGIGSTFSLLNGTTVHTEEESDNGTKKGVEKNIDDETVWEKCYELFCGAFPKASEEIDFEKFLTMIGTFNINQYNGQVYHWISFINHDCEPNAYIEQVEEHEELRLHARKPIKKGEQIRITYVNPLHGVRLRRRELRVNWGFLCQCDRCQNELSTFERVPNLEKKNADANLGVEKIDSNDSSEDGSKKSTGNRKSSMREAQPDLKEILKNGKEFELDIPETVDTQGNVRKTSVRFDSNVSVAVDER | binds |
| BUB3 (protein, UniProt P26449 1-341) MQIVQIEQAPKDYISDIKIIPSKSLLLITSWDGSLTVYKFDIQAKNVDLLQSLRYKHPLLCCNFIDNTDLQIYVGTVQGEILKVDLIGSPSFQALTNNEANLGICRICKYGDDKLIAASWDGLIEVIDPRNYGDGVIAVKNLNSNNTKVKNKIFTMDTNSSRLIVGMNNSQVQWFRLPLCEDDNGTIEESGLKYQIRDVALLPKEQEGYACSSIDGRVAVEFFDDQGDDYNSSKRFAFRCHRLNLKDTNLAYPVNSIEFSPRHKFLYTAGSDGIISCWNLQTRKKIKNFAKFNEDSVVKIACSDNILCLATSDDTFKTNAAIDQTIELNASSIYIIFDYEN | binds |
| TRM2 (protein, UniProt P33753 1-639) MYEQFEFSFFFFENSDNKVKYKAHLISSIKRWSIITCMRCFWTVQKSIFKARFFACRNFVKKHNYKLISTMTGSTEMVPPTMKHTVDNKRLSSPLTDSGNRRTKKPKLRKYKAKKVETTSPMGVLEFEVNDLLKSQNLSREQVLNDVTSILNDKSSTDGPIVLQYHREVKNVKVLEITSNGNGLALIDNPVETEKKQVVIIPFGLPGDVVNIKVFKTHPYYVESDLLDVVEKSPMRRDDLIRDKYFGKSSGSQLEFLTYDDQLELKRKTIMNAYKFFAPRLVAEKLLPPFDTTVASPLQFGYRTKITPHFDMPKRKQKELSVRPPLGFGQKGRPQWRKDTLDIGGHGSILDIDECVLATEVLNKGLTNERRKFEQEFKNYKKGATILLRENTTILDPSKPTLEQLTEEASRDENGDISYVEVEDKKNNVRLAKTCVTNPRQIVTEYVDGYTFNFSAGEFFQNNNSILPIVTKYVRDNLQAPAKGDDNKTKFLVDAYCGSGLFSICSSKGVDKVIGVEISADSVSFAEKNAKANGVENCRFIVGKAEKLFESIDTPSENTSVILDPPRKGCDELFLKQLAAYNPAKIIYISCNVHSQARDVEYFLKETENGSAHQIESIRGFDFFPQTHHVESVCIMKRI | binds |
| TRM3 (protein, UniProt Q07527 1-1436) MVGGALICKYLPREEQLKLISDLIQNDSLEEVLELIETSPLDITTDSNIETPIFEKITEQVIAYASIDGEAREMFRSSRAEMNKALRTSAQLLCCLPSVWHKFQVWMSYRLNDIISENYKHLFNDNFGKKIVQPFFDSFAEEQNANIKHENLHLDILSLLHYLEVVYLFDECKNGISSKCLDFIIVPLLGCNSEEIADSCSKLMRWHIKYLSKCCNTDSNFDKLIWTFIKQLYAEGSQQAWKQKNSLSFLLRFLLAAELSPELITYIKTDAYWRHIQTELDNDVHEHRKLALSILKLTIQKLSSHGITLQTTFYKCNDLANIEMLGSWKKFTTLYEMIALDTSLNQIQAAKQDIIKIFDNEHLHHSWGLILLSTGLKSSMESVRKYMMTLMFSITNMSAFSSNLPLLTKTLLPAAMSAHYFDVKGVSCPHGEKLSLFVNNLLSQTTEGISDILFEILKLLVEKGTSFDPSRIYLSYGILVFFQNNKQKTINSDHLSLIRKLYDFAAEEEVLETTIQTIYLKFLLYIDPSVSASELLFTLVSHIKLKGGTYKYVEPLFEDYRDLAVSHFDDLQAKENLTTNIGKDTIFDLLASIIFDFKDIDITPDFLIEVAKSKQDIPVYTSKAVTFLTQLLSGEPSNGYTYENATALLSYPNFTISTWKSINVNNLFKSVMEKFSLDKFKFFAEIYQKTYECRFDTIELNFNDLLSLYEMVKKSANQCSRESFKVKDSAYSSYFELLNTFLKTYALNRDSSEGNDDELHILLRLVDENINKDNGNYLGNLAVCKLLYFIIDSYIHCSTSVSDDDIFIVKFIFEKFSFIWECINSERLVLKERDLHLMLIKGLFHPVILYFGSNQYIDTLTSKLEEHAQTIISLSYSRRSLLPLLGSQLRVFMKFYGKLLREDVNYWWLINIIVGVFKQPQMDVNLYKLKPVISSLFDHKLNNYYIKGDELYEKVYGPDEILARVSIIDSILYANDQLKIRLIEKVTEKTNALYAIKRTDGAEALQRLLQWQLLLLSLLTTNEKKLSETSMIRILKSIEDESSPLVRVYKEWFISSKVVDYYKTGNPKFAEDYLFSLLEDHSKPVFVVSAEKICFMVLKDLRNDEKKYGFTQLLDRFICTLVPNAASNKPLVRHFSNSLIISLWPTFKAYLSDHTLRNIIENLYSNAKKTQIFGQYRAGDANIWDLKGDRKLTNMFGGVLKKVTDHDCPYISESVFEKYLQEKDIVPIGTDERSLWLDKRDTNTESVNNANISCDTSPLQTKSGAWETVLDLDNKKSNDVVTRSELIVVSSLVDKPPNLGGICRLCDVLGVGLLTVQDIKVKNHPQFKNVAVTADRWMPMEEVALDEIASFMKEKKKEGYTLIGLEQTDKSVKLDNNFQFPKKSLILLGTEAFGIPGTLLSELDLCLEIQQFGVIRSMNIQTATAVIVHSYTVQHM | binds |
| TRM5 (protein, UniProt P38793 45-499) KIPMCAVKFPEPKNISVFSKNFKNCILRVPRIPHVVKLNSSKPKDELTSVQNKKLKTADGNNTPVTKGVLLHESIHSVEDAYGKLPEDALAFLKENSAEIVPHEYVLDYDFWKAEEILRAVLPEQFLEEVPTGFTITGHIAHLNLRTEFKPFDSLIGQVILDKNNKIECVVDKVSSIATQFRTFPMKVIAGKSDSLVVEQKESNCTFKFDFSKVYWNSRLHTEHERLVKQYFQPGQVVCDVFAGVGPFAVPAGKKDVIVLANDLNPESYKYLKENIALNKVAKTVKSFNMDGADFIRQSPQLLQQWIQDEEGGKITIPLPLKKRHRSQQHNDQQPPQPRTKELIIPSHISHYVMNLPDSAISFLGNFRGIFAAHTKGATDTIQMPWVHVHCFEKYPPGDQVTEDELHARVHARIIAALKVTADDLPLNAVSLHLVRKVAPTKPMYCASFQLPANV | binds |
| TRM11 (protein, UniProt Q12463 1-433) MKKYLLYMVQVHLNFRRAELESLADLYNLSIDFSQYDANSPFFIVELENDQQAKDWIKRSILTRGIYEYWGQGTTLDELHKDIQRQSNFEQDLQLKFKHSTFKFEFECYKGNSKAKRVEQIETFRYLGFEGKIDMKHPQEVFTVIEEYTPISENVGGKTPTRIYFGRQVQMSNRSAMEKYDLKKRPYKGTTSFEAELSLVSANIAQVKPGTIMYDPFAGTGSFLVAGGHFGSLVIGSDIDGRMIRGKGAQVNISANFKKYGESSQFLDVLTMDFTNNALRNNLVIDTILCDPPYGIRESIKVLGAKDPERFLGKEDMEIDGEKAYLRRDYIPTKKPYALDSLLDDLLQYSSERLPIGGRLAFWMPTANDANIETIVPMHENLELKYNCVQEFNKWSRRLLVYINRGSTFNGSSNHGIKRSKDNFRERYFNNFN | binds |
| TRM44 (protein, UniProt Q02648 1-567) MTGDGSAHISKNNQNQHKDRFKFIVNDKSILGPQWLSLYQTDGKVTFAKSHFEQAMMNVIREPNINSTVILRADILKEINHAAEAGSEPKFDESVLKKFEIDNGNESGEEDVKKINIEDLNIRSCETSESLKLSPVHEFVRRIIPRNFYKDAIINQTCLILNSKDPNFQETSLIVYTPHINSEKDCPFYIPRTQSVGILLHQSVLSVHYIPFPEDKTAFTDESERVVRTAYRLLQTANKHSKGVMQGYEKRVNHDQVVNKVNFQNTYIVLKKKYSKFLVENWAESTDPKKHVFEDIAIAAFLIELWIKVYGPDFRSKMQFRDLGCGNGALCYILLSESIKGLGIDARKRKSWSIYPPEVQSSLKEQVIIPSILLRPHPALKRQVPHLEHNGRFFPVKVTHEVIAPATVVYSSEDLLKSPQVNTAEFPPDTFIIGNHSDELTCWIPLLGHPYMVIPCCSHNFSGQRVRFNVRKRSPRSNEIKNQNNSKSTYSGLVDHVEYISSRVGWKVEKEMLRIPSTRNAAIIGVENATLKHFPTQAVYDMIWEDGGAEGWIQNTMSLLKRNPRNH | binds |
| APQ12 (protein, UniProt P40532 1-138) MDATQPQYELSVVTQCLKSAIDVIQWLIPTITKFSQSHPLVFQLLFIFFTFYVFYKLLMNFITLVKRFLYLTLVVTCIGIYMRGSQQFLTVDLLNFYNFVMSNRYYAFKIYTLFINALEREINTVYHLAQMKMEQLLK | binds |

Reference: article PMC12204631
